{"source": "PubChem BioAssay AID493014", "about": "(National Center for Advancing Translational Sciences (NCATS), 2011)", "assay": "qHTS Assay to Find Inhibitors of Chronic Active B-Cell Receptor Signaling", "conditions": "ABC-DLBCL IkBa-CBG/CBR reporter, luminescence ratio (green luciferase fused to IkBa over red control in TMD8 lymphoma cells), 4 h", "procedure,_shortened": "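TMD8 human ABC-DLBCL cells with doxycycline-inducible IκBα–green luciferase fusion and unfused red luciferase, in 0.5% FBS medium; compounds up to 46 uM, 4 h at 37C. Green/red luminescence ratio, filter-overlap corrected, fitted to concentration-response curves.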", "key": {"[1]": {"conditions": "measured here: CBR red luminescence, cell number"}, "[2]": {"conditions": "measured here: IkBa-CBG green luminescence"}}, "note": "Some of the results follow. The main result of the screen is listed elsewhere. These columns were measured beside it and carry no call. Compounds called inactive in the main read-out are mostly missing here. The note in brackets gives the kind of curve behind each potency; many fits are weak."}
{"smiles": "CCc1ccc(/C=N/n2c(C3CCCCC3)n[nH]c2=S)cc1", "values": [{"measurement": "AC50", "setting": "[1]", "result": "14.1 µM [rising, partial curve, poor fit]"}]}
{"smiles": "COc1ccc(OC)c(S(N)(=O)=O)c1", "values": [{"measurement": "AC50", "setting": "[1]", "result": "4.11 µM [rising, partial curve, poor fit]"}]}
{"smiles": "COc1ccc(C2CC(c3ccc(Br)cc3)=NN2C(=O)CSC2=NCCS2)cc1", "note": "(centres undefined)", "values": [{"measurement": "AC50", "setting": "[1]", "result": "4.61 µM [falling, partial curve, poor fit]"}]}
{"smiles": "Clc1ccc(Nc2nc(C3CC3)cs2)cc1", "values": [{"measurement": "AC50", "setting": "[1]", "result": "0.58 µM [rising, full curve, poor fit]"}]}
{"smiles": "COC(=O)N/N=C/c1cn(CCOc2ccccc2)c2ccccc12", "values": [{"measurement": "AC50", "setting": "[1]", "result": "11.2 µM [rising, partial curve, poor fit]"}]}
{"smiles": "CCOc1nc(C)ccc1-c1noc(-c2ccccc2OC)n1", "values": [{"measurement": "AC50", "setting": "[1]", "result": "3.16 µM [rising, full curve]"}]}
{"smiles": "COc1ccc(NC(=O)CCNC(=O)Cn2ccc3ccccc3c2=O)c(OC)c1", "values": [{"measurement": "AC50", "setting": "[1]", "result": "0.0731 µM [rising, full curve, poor fit]"}]}
{"smiles": "c1csc(-c2nc(N3CCOCC3)c3ccccc3n2)c1", "values": [{"measurement": "AC50", "setting": "[1]", "result": "5.62 µM [falling, full curve, poor fit]"}]}
{"smiles": "CCN1CCCC1Cn1cnc2c([nH]c3ccc(OC)cc32)c1=O", "note": "(centres undefined)", "values": [{"measurement": "AC50", "setting": "[1]", "result": "7.08 µM [falling, partial curve, poor fit]"}]}
{"smiles": "CC(NC(=O)COC(=O)c1ccc[nH]c1=O)c1ccccc1", "note": "(centres undefined)", "values": [{"measurement": "AC50", "setting": "[1]", "result": "18.4 µM [rising, single point]"}]}
{"smiles": "O=C(NCCc1ccccc1Cl)C1CCC(=O)N(CCCc2ccccc2)C1", "note": "(centres undefined)", "values": [{"measurement": "AC50", "setting": "[1]", "result": "14.1 µM [falling, single point]"}]}
{"smiles": "Cc1ccc2occ(/C=N/NC(N)=S)c(=O)c2c1", "values": [{"measurement": "AC50", "setting": "[1]", "result": "0.0259 µM [rising, full curve, poor fit]"}, {"measurement": "AC50", "setting": "[2]", "result": "0.058 µM [rising, full curve]"}]}
{"smiles": "COC(=O)C1=NN[C@H](C(=O)OC(C)(C)C)[C@H]1c1ccccc1", "values": [{"measurement": "AC50", "setting": "[1]", "result": "16.4 µM [rising, partial curve, poor fit]"}]}
{"smiles": "c1ccc(COc2ccc(OCCOCCn3cncn3)cc2)cc1", "values": [{"measurement": "AC50", "setting": "[1]", "result": "29.1 µM [falling, single point]"}]}
{"smiles": "O=C(COc1ccccc1)Nc1ccccc1Cl", "values": [{"measurement": "AC50", "setting": "[1]", "result": "35.5 µM [falling, single point]"}]}
{"smiles": "Cc1ccc2nc3c(c(Nc4ccccc4)c2c1)CCC3", "values": [{"measurement": "AC50", "setting": "[1]", "result": "14.1 µM [falling, partial curve]"}]}
{"smiles": "CCN(CC)c1ccc(/C=C(\\C#N)C(N)=S)cc1", "values": [{"measurement": "AC50", "setting": "[2]", "result": "12.6 µM [falling, partial curve, poor fit]"}]}
{"smiles": "CCCSc1nn2c(=O)c3ccccc3nc2s1", "values": [{"measurement": "AC50", "setting": "[1]", "result": "5.17 µM [falling, full curve]"}]}
{"smiles": "CCC(CC)C(=O)Nc1cc([N+](=O)[O-])ccc1Cl", "values": [{"measurement": "AC50", "setting": "[1]", "result": "29.1 µM [falling, single point]"}]}
{"smiles": "COc1ccc(C(=O)C[n+]2cc(Br)cc3ccccc32)cc1[N+](=O)[O-]", "values": [{"measurement": "AC50", "setting": "[1]", "result": "0.562 µM [falling, full curve, poor fit]"}]}
{"smiles": "CC1CN(S(=O)(=O)c2cccc(-c3csc(-c4ccccc4)n3)c2)CC(C)O1", "note": "(centres undefined)", "values": [{"measurement": "AC50", "setting": "[1]", "result": "29.1 µM [rising, single point]"}]}
{"smiles": "COc1cc(OC)c2c(-c3cccc(-c4ccc(C(C)=O)cc4)c3)cc(=O)oc2c1", "values": [{"measurement": "AC50", "setting": "[1]", "result": "3.26 µM [rising, full curve]"}, {"measurement": "AC50", "setting": "[2]", "result": "5.8 µM [falling, full curve]"}]}
{"smiles": "CC1OC(OC2C(OC3C(O[C@H]4CC[C@]5(C)C6C=C[C@]78OC[C@@]9(CC[C@@H](C)[C@H](C)C97)[C@H](O)C[C@@]8(C)[C@]6(C)CC[C@H]5C4(C)C)OC(C)C(O)C3O)OC(CO)C(O)C2O)C(O)C(O)C1O", "note": "(some centres undefined)", "values": [{"measurement": "AC50", "setting": "[1]", "result": "35.5 µM [falling, single point]"}, {"measurement": "AC50", "setting": "[2]", "result": "35.5 µM [rising, partial curve, poor fit]"}]}
{"smiles": "CC(=O)Oc1ccc2c(c1)O/C(=C\\c1ccncc1)C2=O", "values": [{"measurement": "AC50", "setting": "[1]", "result": "10 µM [falling, partial curve]"}]}
{"smiles": "COc1cc(NS(C)(=O)=O)c(OC)cc1NC(=O)c1cccc(F)c1", "values": [{"measurement": "AC50", "setting": "[1]", "result": "3.26 µM [falling, single point]"}]}
{"smiles": "Cn1c(CCNC(=O)c2ccco2)nc2cc(NC(=O)c3ccccc3)ccc21", "values": [{"measurement": "AC50", "setting": "[1]", "result": "2.51 µM [falling, partial curve, poor fit]"}]}
{"smiles": "Fc1ccc(-n2ncc3c(NC4CCCCCC4)ncnc32)cc1", "values": [{"measurement": "AC50", "setting": "[1]", "result": "10 µM [falling, partial curve]"}]}
{"smiles": "CCOC(CNC(=O)c1ccc2nc(N3CCC(C)CC3)sc2c1)OCC", "values": [{"measurement": "AC50", "setting": "[1]", "result": "3.66 µM [falling, full curve]"}]}
{"smiles": "CC(=O)c1cc(C(=O)Nc2ccc(C(=O)O)cc2)oc1C", "values": [{"measurement": "AC50", "setting": "[1]", "result": "23.1 µM [falling, single point]"}]}
{"smiles": "COCCN(CCOC)c1nc(-c2ccccc2)nc2ccccc12", "values": [{"measurement": "AC50", "setting": "[1]", "result": "35.5 µM [falling, single point]"}]}
{"smiles": "Cc1ccc(NC2=C(Cl)C(=O)OC2OC(=O)c2ccco2)cc1", "note": "(centres undefined)", "values": [{"measurement": "AC50", "setting": "[1]", "result": "14.6 µM [falling, partial curve]"}]}
{"smiles": "COc1ccc(S(=O)(=O)N2CCCCCC2)cc1C(=O)N1CCCCC1", "values": [{"measurement": "AC50", "setting": "[1]", "result": "1.26 µM [falling, full curve]"}]}
{"smiles": "COc1cc2c(=O)n(Cc3ccccc3)c(=O)n(CC(=O)NCCc3ccccc3)c2cc1OC", "values": [{"measurement": "AC50", "setting": "[1]", "result": "0.13 µM [falling, full curve, poor fit]"}]}
{"smiles": "CCOC(=O)/C=C/CN(C(=O)OC(C)(C)C)S(=O)(=O)N1CC=CC1", "values": [{"measurement": "AC50", "setting": "[1]", "result": "0.112 µM [falling, full curve, poor fit]"}]}
{"smiles": "Cc1ccc(N/C=C/C(=O)c2cccs2)cc1C", "values": [{"measurement": "AC50", "setting": "[1]", "result": "11.2 µM [falling, partial curve]"}]}
{"smiles": "COC(=O)Cc1nc(NC(=O)c2cccs2)sc1C", "values": [{"measurement": "AC50", "setting": "[1]", "result": "10 µM [falling, partial curve]"}]}
{"smiles": "CC(=O)c1sc2c(c1OC(=O)c1ccc(Cl)cc1Cl)c(=O)n(-c1ccccc1)c(=S)n2-c1ccccc1", "values": [{"measurement": "AC50", "setting": "[1]", "result": "5.01 µM [falling, full curve]"}, {"measurement": "AC50", "setting": "[2]", "result": "3.98 µM [rising, full curve, poor fit]"}]}
{"smiles": "COC(=O)N/N=C/c1cc(Br)ccc1O", "values": [{"measurement": "AC50", "setting": "[1]", "result": "22.4 µM [falling, partial curve, poor fit]"}]}
{"smiles": "COc1cccc(CNC(=O)c2cccc(NC(=O)C3=C(C)OCCS3)c2)c1", "values": [{"measurement": "AC50", "setting": "[1]", "result": "35.5 µM [falling, single point]"}]}
{"smiles": "O=C(Nc1nccs1)C1CCCN1/C=C/C(=O)C(F)(F)F", "note": "(centres undefined)", "values": [{"measurement": "AC50", "setting": "[1]", "result": "35.5 µM [rising, single point]"}]}
